Assay results reported in PMC4995099, “Drosophila Nanos acts as a molecular clamp that modulates the RNA-binding and repression activities of Pumilio”.

Columns and labels:
Test in all cases: native gel or EMSA; hb NRE2 RNA (1 nM Cy5-labelled, or 0.3 nM 5´-32P-labelled); Nos and Pum at the concentrations shown above the gels, NosZC titrated 0-1000 nM into 100 nM Pum, or Pum titrated 0-200 nM at 400 nM NosZC; 50 mM Tris-HCl pH 7.6, 150 mM NaCl, 2 mM DTT, 3 hr at 4°C; 5% native polyacrylamide TBE gel; read-out is the shift of the labelled RNA; both purified
[1] = target: T1, Pum Q1337A (Drosophila melanogaster) (UniProt P25822)
T1 sequence: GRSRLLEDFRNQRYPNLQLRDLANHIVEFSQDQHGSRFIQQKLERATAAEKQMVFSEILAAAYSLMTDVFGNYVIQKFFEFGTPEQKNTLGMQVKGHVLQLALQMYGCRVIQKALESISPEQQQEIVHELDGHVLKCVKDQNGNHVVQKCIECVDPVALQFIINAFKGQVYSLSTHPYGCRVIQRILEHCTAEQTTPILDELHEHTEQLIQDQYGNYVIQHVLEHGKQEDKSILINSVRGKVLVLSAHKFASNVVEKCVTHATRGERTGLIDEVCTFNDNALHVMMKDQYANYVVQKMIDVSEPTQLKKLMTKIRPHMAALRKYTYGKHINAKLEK

[2] = target: T2, Pum mutR7 (RNA-binding defective; S1342A N1343A E1346A) (Drosophila melanogaster) (UniProt P25822)
T2 sequence: T1 sequence with A247Q, S252A, N253A, E256A

[3] = target: T3, Pum F1367S (Drosophila melanogaster) (UniProt P25822)
T3 sequence: T1 sequence with A247Q, F277S

- binding [1]: no binding
- binding [2]: no binding
- binding [3]: no binding
Substance: Nos ZC (aa289-401) with C-terminal V5 epitope, EMSA construct (Drosophila melanogaster) (domain or fragment)

Where a chain is given by its changes, count along the chain named. These are yes or no findings as the source states them, for the method shown.
